Measured data: PubChem BioAssay AID1159578 (Peter MacCallum Cancer Centre, 2015)
The deposit covers about 18,000 reagents; this is an unselected part. About 1,030 of them (5.7%) were called active. 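Inactive calls also include pools with fewer than 3300 nuclei, whose migration was not assessed.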 The raw values are shown without normalisation. Unmarked entries are inactive.

- Assay: 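siRNA pools altering how lymphatic endothelial cells close a scratch wound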 (primary screen)
- System: human lymphatic endothelial cells
- Reagents: siRNA pool against human genes, 40 nM
- Timing: 48 h after transfection
- Detection: 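High-content imaging of dye-stained cells in a scratch assay measures filled wound area and nuclei per well; duplicate means given as ratio to mock and robust z-score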
- Scale: migration robust z-score: higher = faster migration into the scratch; migration relative to mock: higher = more scratch area covered than mock; nuclei per well: higher = more cells in the well
- Call rule: 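Pools averaging fewer than 3300 nuclei are never called; remaining pools count as changed when migration robust z lies outside -2 to 2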
- Meaning of the calls: active = migration changed; inactive = no migration change, or too few cells

target gene,migration robust z-score,migration class with cell-count check,migration relative to mock,"nuclei per well, duplicate mean"
MYRF (myelin regulatory factor),-0.25,migration z between -2 and 2; enough cells,0.82,6366
OSBPL6 (oxysterol binding protein like 6),1.56,migration z between -2 and 2; enough cells,1.29,5624
FBXO17 (F-box protein 17),1.03,migration z between -2 and 2; enough cells,1,5417
RASAL2 (RAS protein activator like 2),-0.98,migration z between -2 and 2; enough cells,0.62,4960
ZNF33B (zinc finger protein 33B),-0.69,migration z between -2 and 2; enough cells,0.7,4444
MLF1 (myeloid leukemia factor 1),-0.54,migration z between -2 and 2; enough cells,0.74,4956
KHDRBS3,-0.82,migration z between -2 and 2; enough cells,0.68,5954
XKR5 (XK related 5),-0.82,migration z between -2 and 2; enough cells,0.68,6340
THBS2 (thrombospondin 2),2.82 (active),migration z above 2; enough cells,1.62,5865
SNAP25 (synaptosome associated protein 25),0.26,migration z between -2 and 2; enough cells,0.86,5474
NIPSNAP3A (nipsnap homolog 3A),1.77,migration z between -2 and 2; enough cells,1.35,5470
ATP1B1 (ATPase Na+/K+ transporting subunit beta 1),1.04,migration z between -2 and 2; enough cells,1,6294
MYO1E (myosin IE),-2.13 (active),migration z below -2; enough cells,0.4,7284
MRPL28 (mitochondrial ribosomal protein L28),2.12 (active),migration z above 2; enough cells,1.44,5464
EPN2 (epsin 2),1.36,migration z between -2 and 2; enough cells,1.24,6743
RTL9 (retrotransposon Gag like 9),-0.34,migration z between -2 and 2; enough cells,0.8,6630
HIGD1B (HIG1 hypoxia inducible domain family member 1B),-2.64 (active),migration z below -2; enough cells,0.19,5398
PWWP3B (PWWP domain containing 3B),0.22,migration z between -2 and 2; enough cells,0.94,6114
OGA (O-GlcNAcase),0.65,migration z between -2 and 2; enough cells,0.93,5130
EDA2R (ectodysplasin A2 receptor),-0.42,migration z between -2 and 2; enough cells,0.73,6626
OR2A12 (olfactory receptor family 2 subfamily A member 12),-1.51,migration z between -2 and 2; enough cells,0.49,5310
TFR2 (transferrin receptor 2),-0.26,migration z between -2 and 2; enough cells,0.76,6084
ANKRD27 (ankyrin repeat domain 27),1.37,migration z between -2 and 2; enough cells,1.24,6400
FXR2 (FMR1 autosomal homolog 2),-0.2,migration z between -2 and 2; enough cells,0.84,4858
MMP25 (matrix metallopeptidase 25),-1.77,migration z between -2 and 2; enough cells,0.46,5230
COPZ2 (coat protein complex I subunit zeta 2),-3.77,under 3300 nuclei; migration not judged,-0.09,2200
EYA1 (EYA transcriptional coactivator and phosphatase 1),0.46,migration z between -2 and 2; enough cells,0.9,5576
ATP5MC3 (ATP synthase membrane subunit c locus 3),0.8,migration z between -2 and 2; enough cells,0.96,4269
GNG5 (G protein subunit gamma 5),-0.82,migration z between -2 and 2; enough cells,0.68,5615
SLC27A5,0.52,migration z between -2 and 2; enough cells,0.9,5876
"OPN1LW (opsin 1, long wave sensitive)",0.26,migration z between -2 and 2; enough cells,0.86,5390
ZKSCAN1 (zinc finger with KRAB and SCAN domains 1),-0.22,migration z between -2 and 2; enough cells,0.82,5218
"ESPL1 (extra spindle pole bodies like 1, separase)",0.65,migration z between -2 and 2; enough cells,0.93,3720
TMEM259 (transmembrane protein 259),-1.43,migration z between -2 and 2; enough cells,0.52,5090
PODXL2 (podocalyxin like 2),-0.49,migration z between -2 and 2; enough cells,0.76,6600
PJA2 (praja ring finger ubiquitin ligase 2),-0.42,migration z between -2 and 2; enough cells,0.72,6524
PTPRU (protein tyrosine phosphatase receptor type U),-1.79,migration z between -2 and 2; enough cells,0.46,6772
AP1AR,0.28,migration z between -2 and 2; enough cells,0.96,5326
ARHGAP20 (Rho GTPase activating protein 20),-1.56,migration z between -2 and 2; enough cells,0.48,5407
